Values from PubChem BioAssay AID652243 (Drosophila RNAi Screening Center, 2013)

Screen: 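Knock-downs that decrease or increase androgen receptor reporter signal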 (primary screen)
Cells: Drosophila S2R+ cells
Reagents: long dsRNA against Drosophila genes
Duration: 72 h (48 h, then 24 h hormone)
Conditions: synthetic androgen R1881 at 10 nM for 24 h
Detection: 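Firefly light from an androgen-responsive reporter and Renilla control light per well, raw and unnormalised, for each of two replicates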
Direction: firefly reporter light: higher = more light from androgen-responsive reporter; Renilla control light: higher = more constitutive control signal (cell number, transfection)
Active means: 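Hit when the log firefly-to-Renilla ratio dropped or increased by a fixed fold versus the mean of GFP or LacZ controls across duplicate plates; lowering cut given as 1.5 and as 3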
Calls: active = hit: reporter lowered or raised; inactive = no hit
The deposit covers about 24,000 reagents; below is an unselected part of those with a known target gene and a result. Over the whole deposit, 246 (1%) got an active call. 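Plates not normalised; calls are printed but the firefly/Renilla ratio behind them is not deposited; fold cut for lowering reported inconsistently.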 Raw values are not corrected between plates. A number with no mark means an inactive call. Not given: the amount of reagent.

What did the screen give for CR17567 (retired record) [SID104182419]?
firefly reporter light, replicate 1: 1.99e5; firefly reporter light, replicate 2: 2.20e5; Renilla control light, replicate 1: 2.39e6; Renilla control light, replicate 2: 2.56e6

Which result is listed for CR17567 (retired record) [SID104201977]?
firefly reporter light, replicate 1: 1.08e6; firefly reporter light, replicate 2: 8.64e5; Renilla control light, replicate 1: 3.59e5; Renilla control light, replicate 2: 2.75e5

With CR17567 (retired record) [SID104203489], what was measured?
firefly reporter light, replicate 1: 5.81e5; firefly reporter light, replicate 2: 5.99e5; Renilla control light, replicate 1: 7.46e5; Renilla control light, replicate 2: 7.94e5

For CLIP-190 (Cytoplasmic linker protein 190) [SID104183075], what does the deposit list?
firefly reporter light, replicate 1: 5.19e5; firefly reporter light, replicate 2: 5.95e5; Renilla control light, replicate 1: 1.45e6; Renilla control light, replicate 2: 1.66e6

For CLIP-190 (Cytoplasmic linker protein 190) [SID104208619], what was measured?
firefly reporter light, replicate 1: 8.02e5; firefly reporter light, replicate 2: 7.04e5; Renilla control light, replicate 1: 7.96e5; Renilla control light, replicate 2: 7.28e5

What did the screen give for asRNA:CR31084 (antisense RNA:CR31084) [SID104201339]?
firefly reporter light, replicate 1: 8.86e5; firefly reporter light, replicate 2: 7.66e5; Renilla control light, replicate 1: 2.30e6; Renilla control light, replicate 2: 1.61e6

With nej (nejire) [SID104197798], how do the results read?
firefly reporter light, replicate 1: 39548; firefly reporter light, replicate 2: 51840; Renilla control light, replicate 1: 1.14e6; Renilla control light, replicate 2: 1.37e6

What did the screen give for nej (nejire) [SID104198593]?
firefly reporter light, replicate 1: 25014 (active); firefly reporter light, replicate 2: 26439; Renilla control light, replicate 1: 3.23e5; Renilla control light, replicate 2: 3.59e5

What is on record for nej (nejire) [SID104203633]?
firefly reporter light, replicate 1: 7.50e5; firefly reporter light, replicate 2: 5.89e5; Renilla control light, replicate 1: 7.19e5; Renilla control light, replicate 2: 7.71e5

Which result is listed for nej (nejire) [SID104205318]?
firefly reporter light, replicate 1: 1.05e5 (active); firefly reporter light, replicate 2: 86020; Renilla control light, replicate 1: 5.80e5; Renilla control light, replicate 2: 4.86e5

Taken from above.
For “Renilla control light, replicate 1”, nej (nejire) [SID104198593] shows 3.23e5 (active)
Under “Renilla control light, replicate 1”, CR17567 (retired record) [SID104201977] reads 3.59e5
Result of CLIP-190 (Cytoplasmic linker protein 190) [SID104183075] in “firefly reporter light, replicate 2”: 5.95e5

The list goes on:
Which result is listed for Dtg (Dpp target gene) [SID104195790]?
firefly reporter light, replicate 1: 50883; firefly reporter light, replicate 2: 78321; Renilla control light, replicate 1: 2.92e5; Renilla control light, replicate 2: 6.21e5

For Dtg (Dpp target gene) [SID104205491], what does the deposit list?
firefly reporter light, replicate 1: 3.55e5; firefly reporter light, replicate 2: 3.39e5; Renilla control light, replicate 1: 6.48e5; Renilla control light, replicate 2: 4.72e5

What is on record for CG9876 [SID104184378]?
firefly reporter light, replicate 1: 3.53e5; firefly reporter light, replicate 2: 2.45e5; Renilla control light, replicate 1: 3.03e6; Renilla control light, replicate 2: 2.42e6

Which result is listed for Ino80 (INO80 complex subunit) [SID104194552]?
firefly reporter light, replicate 1: 2.67e5; firefly reporter light, replicate 2: 1.86e5; Renilla control light, replicate 1: 3.22e6; Renilla control light, replicate 2: 2.36e6

For Ino80 (INO80 complex subunit) [SID104195125], what was measured?
firefly reporter light, replicate 1: 2.28e5; firefly reporter light, replicate 2: 2.61e5; Renilla control light, replicate 1: 2.18e6; Renilla control light, replicate 2: 2.12e6

With Ino80 (INO80 complex subunit) [SID104195293], what was measured?
firefly reporter light, replicate 1: 2.05e5; firefly reporter light, replicate 2: 2.43e5; Renilla control light, replicate 1: 3.24e6; Renilla control light, replicate 2: 2.41e6
